Measurements taken from paper PMC10657444, “Design and evaluation of tadpole-like conformational antimicrobial peptides” (Communications Biology, 2023).
Values joined by “and” are separate entries in the source; they are usually repeats but may differ in a detail not shown here. Identical values can stand only once. This continues a long series; more values of the same kind are listed elsewhere. Non-standard residues stand in square brackets, D forms with d. Residues, ends and D or L forms follow the SMILES beside them.

Experiments:
MRSA USA 300 = experiment: Membrane permeability, SYTOX Green; assay type: cell-based, Staphylococcus aureus
Experimental: Fluorescent probe SYTOX^TM Green (Invitrogen/ Life Technologies, S7020) was used to analyze the effect of HT2 and RI-HT2 on membrane permeability of MRSA USA 300 and K. pneumoniae ATCC 700603 as described elsewhere. SYTOX^TM Green is a DNA binding dye that is fluorescent when bound to nucleic acids and only enters cells with compromised plasma membranes. MRSA USA 300 and K. pneumoniae ATCC 700603 were cultured in LB broth to mid log phase at 37 °C and washed with PBS and resuspended (OD595 ≈ 0.1) in the same buffer. SYTOX^TM Green was added into the cell suspension with a final concentration of 5 μM and being kept in dark for 20 min. 98 µL pre-treated cell suspension was transferred into wells of 96-well glass black plates. Then, 2 µL of compound or DMSO were added to initiate the reaction. The final concentrations of HT2 and RI-HT2 were 1 ×, 2 ×, 4 × and 8 × MIC. Fluorescence strength was measured with excitation/emission wavelength of 485/528 nm every 5 min for 60 min.

[1] = test system: K. pneumoniae ATCC 700603; experiment: Membrane depolarization assay, DiSC3(5); assay type: cell-based, Klebsiella pneumoniae
Experimental: MRSA USA 300 and K. pneumoniae ATCC 700603 were inoculated into 5 mL of LB and shaken at 37°C and 225 rpm to OD600 ≈ 0.5 (i.e., mid-logarithmic phase). Bacteria were collected by centrifugation at 8000 rpm for 5 min, and washed twice with assay buffer (5 mM HEPES, 20 mM glucose, 10 mM KCl, pH 7.2). Bacteria were resuspended in the assay buffer to OD595 ≈ 0.1. DiSC3(5) was added to the cells at final concentration of 0.3 µM, wrapped with aluminum foil, and incubated at 37°C, until a stable fluorescence was observed. Two microliter of compound or DMSO were transferred into 96-well black walled polystyrene plates, to which was added 98 µL per well of the dye-saturated bacterial cells to initiate the reaction. The final concentration of HT2 and RI-HT2 were 1 ×, 2 ×, 4 × and 8 × MIC. Plates were immediately read on an Envison at λex = 622 nm/ λem = 670 nm with a kinetic program (reading every 1 min for 10 min) until the maximal intensity achieved was observed.

`CC[C@@H](C)[C@@H](NC(=O)[C@@H](Cc1ccccc1)NC(=O)[C@@H](Cc1ccccc1)NC(=O)[C@@H](Cc1ccccc1)NC(=O)[C@H](N)Cc1ccccc1)C(=O)N[C@H](CCCNC(=N)N)C(=O)N[C@H](CCCNC(=N)N)C(=O)N[C@H](CC(C)C)C(=O)N[C@H](Cc1ccccc1)C(=O)N[C@H](CCCNC(=N)N)C(N)=O` [RI-HT2] (H-[dF][dF][dF][dF][dI][dR][dR][dL][dF][dR]-NH2; N-terminus assumed) was tested, and the Fluorescence intensity (MRSA USA 300; 2 × MIC, time 40 min) was 33952 and 34791 and 32993, the Fluorescence intensity (MRSA USA 300; 2 × MIC, time 45 min) was 34234 and 35153 and 33304 and the Fluorescence intensity (MRSA USA 300; 2 × MIC, time 50 min) was 34616 and 35530 and 33726. For the same compound, the Fluorescence intensity (MRSA USA 300; 2 × MIC, time 55 min) was 35021 and 36015 and 33983, the Fluorescence intensity (MRSA USA 300; 2 × MIC, time 60 min) was 35210 and 36080 and 33852 and the Fluorescence intensity (MRSA USA 300; 4 × MIC, time 40 min) was 61373 and 61097 and 62778. For the same compound, the Fluorescence intensity (MRSA USA 300; 4 × MIC, time 45 min) was 61952 and 61758 and 63164, the Fluorescence intensity (MRSA USA 300; 4 × MIC, time 50 min) was 62152 and 62388 and 63395 and the Fluorescence intensity (MRSA USA 300; 4 × MIC, time 55 min) was 62374 and 62948 and 63676. The Fluorescence intensity (MRSA USA 300; 4 × MIC, time 60 min) was 62761 and 62954 and 64070, the Fluorescence intensity (MRSA USA 300; 8 × MIC, time 40 min) was 64561 and 64714 and the Fluorescence intensity (MRSA USA 300; 8 × MIC, time 45 min) was 62984 and 64891 and 65072. For the same compound, the Fluorescence intensity (MRSA USA 300; 8 × MIC, time 50 min) was 63293 and 64293 and 63594, the Fluorescence intensity (MRSA USA 300; 8 × MIC, time 55 min) was 63589 and 64553 and 65531 and the Fluorescence intensity (MRSA USA 300; 8 × MIC, time 60 min) was 63666 and 65987 and 65753. For the same compound, the Fluorescence intensity (MRSA USA 300; MIC, time 45 min) was 17644 and 17567 and 16788, the Fluorescence intensity (MRSA USA 300; MIC, time 50 min) was 17792 and 17686 and 16728 and the Fluorescence intensity (MRSA USA 300; MIC, time 55 min) was 17738 and 17641 and 16766. The Fluorescence intensity (MRSA USA 300; MIC, time 60 min) was 17754 and 17734 and 16661, the Fluorescence intensity ([1]; 2 × MIC, time 0 min) was 524 and 562 and 567 and the Fluorescence intensity ([1]; 2 × MIC, time 2 min) was 516 and 539 and 556. For the same compound, the Fluorescence intensity ([1]; 2 × MIC, time 3 min) was 1018 and 1081 and 1049, the Fluorescence intensity ([1]; 2 × MIC, time 4 min) was 977 and 1102 and 1036 and the Fluorescence intensity ([1]; 2 × MIC, time 5 min) was 928 and 1041 and 1003. The Fluorescence intensity ([1]; 2 × MIC, time 6 min) was 984 and 1005 and 1049, the Fluorescence intensity ([1]; 2 × MIC, time 7 min) was 1019 and 971 and 1090 and the Fluorescence intensity ([1]; 2 × MIC, time 8 min) was 991 and 1019 and 1055. The Fluorescence intensity ([1]; 2 × MIC, time 9 min) was 1058 and 978 and 1012, the Fluorescence intensity ([1]; 2 × MIC, time 10 min) was 1037 and 960 and 1078 and the Fluorescence intensity ([1]; 4 × MIC, time 0 min) was 590 and 529 and 584. The Fluorescence intensity ([1]; 4 × MIC, time 2 min) was 584 and 515 and 571, the Fluorescence intensity ([1]; 4 × MIC, time 3 min) was 1452 and 1364 and 1296 and the Fluorescence intensity ([1]; 4 × MIC, time 4 min) was 1513 and 1410 and 1284. The Fluorescence intensity ([1]; 4 × MIC, time 5 min) was 1502 and 1400 and 1268, the Fluorescence intensity ([1]; 4 × MIC, time 6 min) was 1465 and 1366 and 1261 and the Fluorescence intensity ([1]; 4 × MIC, time 7 min) was 1429 and 1325 and 1193. The Fluorescence intensity ([1]; 4 × MIC, time 8 min) was 1394 and 1320 and 1167, the Fluorescence intensity ([1]; 4 × MIC, time 9 min) was 1416 and 1328 and 1128 and the Fluorescence intensity ([1]; 4 × MIC, time 10 min) was 1397 and 1278 and 1109. For the same compound, the Fluorescence intensity ([1]; 8 × MIC, time 0 min) was 592 and 582 and 568, the Fluorescence intensity ([1]; 8 × MIC, time 2 min) was 573 and 564 and 570 and the Fluorescence intensity ([1]; 8 × MIC, time 3 min) was 1540 and 1556 and 1621. For the same compound, the Fluorescence intensity ([1]; 8 × MIC, time 4 min) was 1615 and 1608 and 1605, the Fluorescence intensity ([1]; 8 × MIC, time 5 min) was 1614 and 1585 and 1626 and the Fluorescence intensity ([1]; 8 × MIC, time 6 min) was 1612 and 1568 and 1607. For the same compound, the Fluorescence intensity ([1]; 8 × MIC, time 7 min) was 1596 and 1549 and 1575, the Fluorescence intensity ([1]; 8 × MIC, time 8 min) was 1587 and 1547 and 1574 and the Fluorescence intensity ([1]; 8 × MIC, time 9 min) was 1570 and 1525 and 1571. For the same compound, the Fluorescence intensity ([1]; 8 × MIC, time 10 min) was 1544 and 1527 and 1554, the Fluorescence intensity ([1]; MIC, time 0 min) was 565 and 514 and 640 and the Fluorescence intensity ([1]; MIC, time 2 min) was 559 and 523 and 621. The Fluorescence intensity ([1]; MIC, time 3 min) was 708 and 709 and 760, the Fluorescence intensity ([1]; MIC, time 4 min) was 641 and 602 and 694 and the Fluorescence intensity ([1]; MIC, time 5 min) was 610 and 588 and 672. For the same compound, the Fluorescence intensity ([1]; MIC, time 6 min) was 609 and 576 and 656, the Fluorescence intensity ([1]; MIC, time 7 min) was 589 and 556 and 657 and the Fluorescence intensity ([1]; MIC, time 8 min) was 594 and 552 and 635. The Fluorescence intensity ([1]; MIC, time 9 min) was 581 and 540 and 637 and the Fluorescence intensity ([1]; MIC, time 10 min) was 570 and 534 and 636.
